Literature values, collected in patent US11903945B2, “Methods of treating antipsychotic-induced weight gain with miricorilant” (Corcept Therapeutics Incorporated, priority 2019, dated 2024).
For some assays here: At least one compound was matched to its structure with a doubt left. Some of these results come from one statement about several compounds together.

Experiments:
[1] = test system: tyrosine aminotransferase (TAT) in HepG2 cells; conditions: HepG2 human liver hepatocellular carcinoma cell line; cited from earlier work
[2] = patients; Allison et al. 2001; cited from earlier work

Row | Compound | Effect on activity of tyrosine aminotransferase (TAT) in HepG2 cells [1] | Weight gained after 10 weeks of treatment [2] [kg]
1 | C[C@@H]1C[C@H]2[C@@H]3CCC4=CC(=O)C=C[C@]4(C)[C@@]3(F)[C@@H](O)C[C@]2(C)[C@@]1(O)C(=O)CO [dexamethasone] | increases | –
2 | Cc1cc2c(s1)Nc1ccccc1N=C2N1CCN(C)CC1 [olanzapine, reference compound] | – | 4 to 4.5
